The results in this text go back to patent US20030091567A1.

Protein sequences, listed by entry. Tags and fused reporters are not part of them. Lines headed by an entry give the natural chain unless they say otherwise; changes in a name come on top. Chains listed by the source or under a name are the forms on record and can include a tag or linker.
recombinant Flt4 extracellular domain with C-terminal 6xHis tag (baculovirus), coupled to Sepharose (P35916, form named): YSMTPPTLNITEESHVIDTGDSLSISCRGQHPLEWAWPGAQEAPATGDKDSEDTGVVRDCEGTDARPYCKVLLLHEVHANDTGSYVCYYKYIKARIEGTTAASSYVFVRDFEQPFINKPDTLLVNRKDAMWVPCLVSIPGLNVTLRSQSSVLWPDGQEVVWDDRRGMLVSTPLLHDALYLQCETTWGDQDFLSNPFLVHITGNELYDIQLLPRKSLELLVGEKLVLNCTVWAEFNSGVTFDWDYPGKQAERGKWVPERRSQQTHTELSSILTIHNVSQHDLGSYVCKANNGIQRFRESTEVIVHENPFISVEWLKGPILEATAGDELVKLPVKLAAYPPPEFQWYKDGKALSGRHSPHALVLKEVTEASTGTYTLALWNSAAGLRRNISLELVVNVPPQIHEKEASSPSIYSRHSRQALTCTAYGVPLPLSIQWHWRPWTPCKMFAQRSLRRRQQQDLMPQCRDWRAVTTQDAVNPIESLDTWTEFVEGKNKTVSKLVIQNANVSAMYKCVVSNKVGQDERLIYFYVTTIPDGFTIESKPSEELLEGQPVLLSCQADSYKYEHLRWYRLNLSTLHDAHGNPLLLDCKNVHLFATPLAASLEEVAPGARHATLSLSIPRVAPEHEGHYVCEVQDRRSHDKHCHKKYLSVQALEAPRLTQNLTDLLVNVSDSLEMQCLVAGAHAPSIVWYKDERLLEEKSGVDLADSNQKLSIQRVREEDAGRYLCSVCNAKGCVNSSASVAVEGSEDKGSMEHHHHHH

For the assay, the target named is recombinant Flt4 extracellular domain with C-terminal 6xHis tag (baculovirus), coupled to Sepharose (human) (UniProt P35916). Description: pull-down of 35S-labelled medium with VEGFR-3 extracellular domain coupled to sepharose.

These are yes or no findings as the source states them, for the method shown. Binding seen in cells or lysates may run through a third protein. Some results given as binding are weak or reduced against the parent protein; the word gives no strength.

B1: recombinant mouse VEGF-C (medium of Bosc23 cells transfected with mouse VEGF-C cDNA) (ligand)
chain: AHYNTEILKSIDNEWRKTQCMPREVCIDVGKEFGAATNTFFKPPCVSVYRCGGCCNSEGLQCMNTSTGYLSKTLFEITVPLSQGPKPVTISFANHTSCRCMSKLDVYRQVHSIIRR
For the molecule B1, the binding result is reported as “binds”.
